These are yes or no findings as the source states them, for the method shown. In cells and extracts the contact can be indirect. Some entries that bind do so weakly or less than the wild type.
Target: human apolipoprotein B (apoB) of serum low density lipoprotein particles (human) (UniProt P04114)
Experiment: co-isolation by size exclusion chromatography; also co-purification with LDL on flotation centrifugation

Protein sequences, listed by entry. Tags and fused reporters are not part of them. Lines headed by an entry give the natural chain unless they say otherwise; changes in a name come on top. Residues count along the entry.
UniProt P04114, residues 28-4563: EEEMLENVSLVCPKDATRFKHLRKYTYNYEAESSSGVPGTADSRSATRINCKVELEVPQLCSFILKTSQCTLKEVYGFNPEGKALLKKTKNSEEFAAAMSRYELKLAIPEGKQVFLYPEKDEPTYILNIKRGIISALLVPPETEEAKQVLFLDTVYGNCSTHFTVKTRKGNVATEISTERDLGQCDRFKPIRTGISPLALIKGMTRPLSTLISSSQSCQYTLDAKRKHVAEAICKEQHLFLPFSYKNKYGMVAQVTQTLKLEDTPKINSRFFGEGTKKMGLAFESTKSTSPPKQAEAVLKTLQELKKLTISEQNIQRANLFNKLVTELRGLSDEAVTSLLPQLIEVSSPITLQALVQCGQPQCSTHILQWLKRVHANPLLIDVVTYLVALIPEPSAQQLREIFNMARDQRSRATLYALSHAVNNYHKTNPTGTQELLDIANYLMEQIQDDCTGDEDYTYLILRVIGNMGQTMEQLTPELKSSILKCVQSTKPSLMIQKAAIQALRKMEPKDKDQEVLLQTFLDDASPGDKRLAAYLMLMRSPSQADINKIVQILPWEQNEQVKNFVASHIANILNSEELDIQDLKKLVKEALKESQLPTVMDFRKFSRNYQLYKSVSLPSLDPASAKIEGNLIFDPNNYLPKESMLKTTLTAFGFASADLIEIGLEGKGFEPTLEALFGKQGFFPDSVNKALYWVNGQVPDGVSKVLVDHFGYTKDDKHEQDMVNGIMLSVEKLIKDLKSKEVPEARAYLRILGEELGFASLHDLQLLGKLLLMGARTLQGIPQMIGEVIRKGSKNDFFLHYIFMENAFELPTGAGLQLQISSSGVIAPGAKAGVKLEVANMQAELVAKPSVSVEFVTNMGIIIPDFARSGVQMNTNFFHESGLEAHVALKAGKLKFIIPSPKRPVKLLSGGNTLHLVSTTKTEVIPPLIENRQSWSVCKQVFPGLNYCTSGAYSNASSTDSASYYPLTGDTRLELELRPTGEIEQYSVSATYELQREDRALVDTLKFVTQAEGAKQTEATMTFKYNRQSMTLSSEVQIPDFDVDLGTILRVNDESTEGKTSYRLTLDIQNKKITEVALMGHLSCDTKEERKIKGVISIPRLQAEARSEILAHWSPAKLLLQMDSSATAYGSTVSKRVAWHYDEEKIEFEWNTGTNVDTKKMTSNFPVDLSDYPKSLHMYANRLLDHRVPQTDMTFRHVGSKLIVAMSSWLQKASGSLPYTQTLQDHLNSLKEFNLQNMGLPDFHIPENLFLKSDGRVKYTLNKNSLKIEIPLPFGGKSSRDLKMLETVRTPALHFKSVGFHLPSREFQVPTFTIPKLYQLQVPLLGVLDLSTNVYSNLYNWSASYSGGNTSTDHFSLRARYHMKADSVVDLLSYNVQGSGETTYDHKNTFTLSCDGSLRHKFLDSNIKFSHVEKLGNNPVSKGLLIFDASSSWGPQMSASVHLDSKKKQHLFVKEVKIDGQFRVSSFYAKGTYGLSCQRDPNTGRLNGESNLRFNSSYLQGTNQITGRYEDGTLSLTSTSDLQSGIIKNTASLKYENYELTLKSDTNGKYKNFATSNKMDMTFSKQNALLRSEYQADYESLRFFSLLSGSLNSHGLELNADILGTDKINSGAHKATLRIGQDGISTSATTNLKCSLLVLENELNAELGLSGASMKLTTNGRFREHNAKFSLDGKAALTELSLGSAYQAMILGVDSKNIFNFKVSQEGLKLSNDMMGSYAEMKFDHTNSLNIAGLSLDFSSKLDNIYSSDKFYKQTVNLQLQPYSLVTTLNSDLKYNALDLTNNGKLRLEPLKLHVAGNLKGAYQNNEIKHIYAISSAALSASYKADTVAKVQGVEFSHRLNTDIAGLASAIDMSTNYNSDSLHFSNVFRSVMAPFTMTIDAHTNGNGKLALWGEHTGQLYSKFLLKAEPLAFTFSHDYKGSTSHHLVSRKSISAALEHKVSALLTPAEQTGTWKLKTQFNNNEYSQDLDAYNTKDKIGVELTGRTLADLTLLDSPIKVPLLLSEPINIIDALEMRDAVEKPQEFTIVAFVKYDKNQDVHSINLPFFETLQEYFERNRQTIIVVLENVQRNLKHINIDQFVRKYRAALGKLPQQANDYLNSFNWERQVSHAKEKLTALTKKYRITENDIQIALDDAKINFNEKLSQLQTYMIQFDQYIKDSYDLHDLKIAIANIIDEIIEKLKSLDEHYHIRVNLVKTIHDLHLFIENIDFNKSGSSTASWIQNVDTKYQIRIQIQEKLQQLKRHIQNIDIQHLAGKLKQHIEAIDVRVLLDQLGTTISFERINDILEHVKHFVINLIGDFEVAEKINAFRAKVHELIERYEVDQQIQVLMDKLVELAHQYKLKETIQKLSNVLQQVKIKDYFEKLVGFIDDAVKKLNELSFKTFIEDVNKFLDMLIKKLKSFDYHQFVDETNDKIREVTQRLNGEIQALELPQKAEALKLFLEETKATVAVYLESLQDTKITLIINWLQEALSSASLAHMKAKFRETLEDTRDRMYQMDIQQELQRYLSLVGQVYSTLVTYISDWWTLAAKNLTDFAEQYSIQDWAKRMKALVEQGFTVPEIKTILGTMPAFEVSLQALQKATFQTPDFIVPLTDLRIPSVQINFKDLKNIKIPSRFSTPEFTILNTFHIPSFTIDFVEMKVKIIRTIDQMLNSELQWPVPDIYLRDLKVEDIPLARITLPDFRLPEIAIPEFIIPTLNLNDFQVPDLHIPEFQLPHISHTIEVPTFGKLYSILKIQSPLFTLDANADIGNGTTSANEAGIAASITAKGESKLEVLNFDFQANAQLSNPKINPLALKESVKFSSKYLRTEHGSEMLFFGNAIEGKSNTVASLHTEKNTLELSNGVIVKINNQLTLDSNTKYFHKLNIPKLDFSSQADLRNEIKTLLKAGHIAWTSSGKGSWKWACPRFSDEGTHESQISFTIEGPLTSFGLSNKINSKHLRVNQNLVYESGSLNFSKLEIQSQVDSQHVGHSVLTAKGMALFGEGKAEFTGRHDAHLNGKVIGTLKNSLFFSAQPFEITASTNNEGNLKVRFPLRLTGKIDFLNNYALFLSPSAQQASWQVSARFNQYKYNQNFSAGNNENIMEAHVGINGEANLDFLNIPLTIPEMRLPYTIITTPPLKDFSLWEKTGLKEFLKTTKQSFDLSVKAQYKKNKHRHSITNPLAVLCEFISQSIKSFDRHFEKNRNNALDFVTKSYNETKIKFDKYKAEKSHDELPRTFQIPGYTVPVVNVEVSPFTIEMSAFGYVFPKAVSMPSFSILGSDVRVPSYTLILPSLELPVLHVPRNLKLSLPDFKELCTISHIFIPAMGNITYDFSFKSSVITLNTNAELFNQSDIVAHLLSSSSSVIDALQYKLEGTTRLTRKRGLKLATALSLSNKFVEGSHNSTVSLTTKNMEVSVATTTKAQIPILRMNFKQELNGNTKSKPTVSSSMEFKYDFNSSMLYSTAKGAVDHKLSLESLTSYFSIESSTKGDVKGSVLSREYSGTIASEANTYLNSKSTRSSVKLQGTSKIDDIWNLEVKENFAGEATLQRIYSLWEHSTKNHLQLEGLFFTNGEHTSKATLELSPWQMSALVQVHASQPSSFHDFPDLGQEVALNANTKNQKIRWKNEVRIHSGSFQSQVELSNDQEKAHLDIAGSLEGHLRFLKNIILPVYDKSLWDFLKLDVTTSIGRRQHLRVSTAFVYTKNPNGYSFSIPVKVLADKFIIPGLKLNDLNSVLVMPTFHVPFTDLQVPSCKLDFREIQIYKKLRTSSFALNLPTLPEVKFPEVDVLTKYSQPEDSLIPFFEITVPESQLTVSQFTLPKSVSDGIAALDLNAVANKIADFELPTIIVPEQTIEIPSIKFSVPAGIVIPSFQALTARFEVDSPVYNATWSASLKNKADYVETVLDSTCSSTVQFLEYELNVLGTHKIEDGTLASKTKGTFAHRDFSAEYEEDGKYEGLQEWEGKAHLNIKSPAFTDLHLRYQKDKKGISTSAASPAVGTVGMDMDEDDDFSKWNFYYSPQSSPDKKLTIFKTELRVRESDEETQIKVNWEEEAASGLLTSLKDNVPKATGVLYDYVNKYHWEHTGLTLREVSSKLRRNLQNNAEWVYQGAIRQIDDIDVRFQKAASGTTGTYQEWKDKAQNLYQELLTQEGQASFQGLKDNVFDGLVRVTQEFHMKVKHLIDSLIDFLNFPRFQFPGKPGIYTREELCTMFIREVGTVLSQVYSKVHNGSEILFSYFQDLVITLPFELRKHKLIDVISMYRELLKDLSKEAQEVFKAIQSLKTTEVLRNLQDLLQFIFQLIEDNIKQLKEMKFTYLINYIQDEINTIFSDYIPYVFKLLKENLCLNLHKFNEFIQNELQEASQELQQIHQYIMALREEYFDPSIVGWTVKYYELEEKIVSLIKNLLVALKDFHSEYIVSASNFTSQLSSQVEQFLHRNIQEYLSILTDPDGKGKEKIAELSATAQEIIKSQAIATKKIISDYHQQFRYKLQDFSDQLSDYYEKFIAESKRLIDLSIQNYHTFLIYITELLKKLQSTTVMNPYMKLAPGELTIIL
UniProt Q99805: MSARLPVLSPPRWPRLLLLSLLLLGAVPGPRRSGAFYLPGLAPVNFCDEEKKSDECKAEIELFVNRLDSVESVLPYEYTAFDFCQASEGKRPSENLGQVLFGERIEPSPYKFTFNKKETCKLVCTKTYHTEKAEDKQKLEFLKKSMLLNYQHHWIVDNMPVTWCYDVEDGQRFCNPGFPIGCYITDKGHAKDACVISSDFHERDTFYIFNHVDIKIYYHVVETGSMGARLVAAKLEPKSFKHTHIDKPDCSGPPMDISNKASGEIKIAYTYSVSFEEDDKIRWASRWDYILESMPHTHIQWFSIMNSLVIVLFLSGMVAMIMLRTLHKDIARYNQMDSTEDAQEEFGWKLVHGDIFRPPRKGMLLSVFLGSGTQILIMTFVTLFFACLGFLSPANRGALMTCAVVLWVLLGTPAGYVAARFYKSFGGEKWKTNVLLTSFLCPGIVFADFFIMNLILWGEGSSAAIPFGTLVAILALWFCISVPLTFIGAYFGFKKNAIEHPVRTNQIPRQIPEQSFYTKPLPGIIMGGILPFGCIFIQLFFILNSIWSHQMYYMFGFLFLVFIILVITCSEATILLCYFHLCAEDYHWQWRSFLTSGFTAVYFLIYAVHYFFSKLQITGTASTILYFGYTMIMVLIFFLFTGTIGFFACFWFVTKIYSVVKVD

With “apoBNOX (TM9 SF2), shed/truncated soluble form associated with low density lipoprotein particles of human sera (from UniProt Q99805 29-300) (enzyme)” the binding was “binds”.
